# The list shows a part of the results.
# Tested on: T1, CTL2-GFP (C. trachomatis L2/434/Bu, GFP-expressing)
# T1 construct: L2/434/Bu, GFP-expressing
# Design: species or system HeLa; Intracellular C. trachomatis growth in HeLa cells, bulk GFP fluorescence relative to DMSO
# Details: bulk GFP, single well; 28.5 h, 10 µM; inhibitor
row,Structure (SMILES),% of control remaining [%]
1,CCNC(=O)/N=C(\N)Nc1nc2ccccc2s1 [CBK028890],133.818
2,COC(=O)c1c(NC(=S)Nc2ccc(Br)cn2)sc2c1CCC2 [CBK266862],147.034
3,O=C(NCc1ccc(Cl)c(Cl)c1)N1CCN(c2cc(C(F)(F)F)ccn2)CC1 [CBK156434],86.8576
4,Cc1cccc2c(=O)nc(-c3ccccc3Cl)oc12 [CBK152422],111.005
5,CN1CCC(OC(=O)COc2ccc(Cl)cc2Cl)CC1 [CBK266389C],96.4727
6,COc1ccc2[nH]cc(CCNC(=O)c3cccnc3)c2c1 [CBK122722],200.292
7,O=S1(=O)CCN(Cc2cn(-c3ccc(-c4ccccc4)cc3)nn2)CC1 [CBK113105],108.055
8,COc1cc(OC)nc(C(NC(=O)C2CCN(CCN3C(=O)c4ccccc4C3=O)CC2)c2ccc(F)cc2)n1 (centres unmarked) [CBK148083],81.9761
9,Cc1nn(Cc2ccc(F)cc2)c2sc(C(=O)NCc3ccc(S(N)(=O)=O)cc3)cc12 [CBK295181],81.3949
10,O=C(O)CC(C(=O)Nc1ccccc1)C1CCCO1 (centres unmarked) [CBK286809],108.713
11,C=C(C)Cn1c(SCC(C)C)nnc1-c1scc(C)c1Cl [CBK200095],110.797
12,COc1ccc(Br)cc1/C=C/C(=O)NC(=S)Nc1cc(C(=O)O)ccc1Cl [CBK265564],100
13,O=C(O)CCc1ccc(-c2cccs2)n1-c1ccc(C(=O)O)cc1 [CBK266016],136.532
14,N#Cc1ccccc1NC(=O)NCCC1=CCCCC1 [CBK044365],104.886
15,Nc1n[nH]c2nc(-c3ccccc3)c3c(c12)CCC3 [CBK288178],111.274
16,CC(C)(C)c1ccc(OCc2nc(N)c3c(N)n[nH]c3n2)cc1 [CBK008565],114.666
17,c1ccc(COc2ccc3[nH]c4c(c3c2)CCNC42CCCN(CC3CC3)C2)cc1 (centres unmarked) [CBK040619],81.0055
18,Cc1cc(C)nc(NC(=O)c2cccc(Cl)c2)n1 [CBK288165],104.453
19,O=C(NCC(F)(F)F)c1cnc(-c2ccc(Cl)cc2)c(-c2ccco2)c1 [CBK037468],164.029
20,O=C(O)CCC(=O)CCC(=O)c1cccs1 [CBK264807],106.621
21,Cc1nn(C)c(C)c1C(=O)Nc1sc2c(c1C#N)CCC(C)C2 (centres unmarked) [CBK304645],99.7135
22,CC(C)CCNC(=O)c1ccc(N2CCN(C(=O)c3ccccc3C(F)(F)F)CC2)nn1 [CBK153222],79.4428
23,O=C(NCCN1CCOCC1)c1cc(-n2cnnc2)ccc1Cl [CBK268023],112.107
24,CC(=O)NCc1cccc(-c2cc(COc3ccc4c(c3)OCO4)cnc2-c2ccc(Cl)cc2)c1 [CBK164106A],104.899
25,CC1CCN(C(=O)CC(NC(N)=O)c2cccc(Br)c2)CC1 (centres unmarked) [CBK305788],147.541
26,CS(=O)(=O)NC1CCCCC1 [CBK012234],162.016
27,Cc1ccn(CCNC(=O)c2cc3cccc(C)c3nc2C)n1 [CBK282645],115.349

row,Structure (SMILES),% of control remaining [%]
1,CC(C)(C)OC(=O)N1CCN(c2cc(Cl)nc(N)n2)CC1 [CBK003505],121.833
2,O=C(c1cccs1)n1ccc(-c2ccc3c(c2)CCO3)n1 [CBK006090],104.378
3,CC(=O)N1CCc2nc(NC(=O)c3cccs3)sc2C1 [CBK282680],118.062
4,CC1(OCc2ccccc2)SC(NC2CCCCCC2)=NC1=O (centres unmarked) [CBK105606],130.166
5,COc1ccc(-c2nc3ccccn3c2CN2CCC(C(=O)O)CC2)cc1OC [CBK287063],128.731
6,COCCNC(=O)N1CCN(Cc2ccccn2)CC1 [CBK304817],117.46
7,COc1ccc(C)cc1NC(=O)CSc1nc(C)cc(C(F)(F)F)n1 [CBK270205],116.424
8,O=C(OCCc1cccnc1)N1CCC(C(F)(F)F)CC1 [CBK200159],122.491
9,Cc1ccc(C(=O)c2coc3ccc(OCC(=O)O)cc23)cc1 [CBK263084],116.648
10,COc1cccc(-c2nc(C3CCN(CCc4ccc(F)cc4)CC3)n3ccccc23)c1 [CBK035373],123.686
11,C[C@H](Nc1nc(-c2cccc3ncccc23)cnc1N)c1ccccc1 [CBK063771],118.11
12,O=C(COc1ccc(S(=O)(=O)N2CCCC2)cc1Cl)Nc1ccc2c(c1)OCCO2 [CBK268559],83.1605
13,Cn1ccnc1C(=O)N1C[C@H]2CCc3c(n[nH]c3C(F)(F)F)[C@H]2C1 [CBK283441],124.113
14,CCOC(=O)Cn1ncc2c3sc(C)cc3n(C)c2c1=O [CBK282388],166.364
15,CC1(C)NC(=O)N(CC(O)Cn2c3ccccc3c3ccccc32)C1=O (centres unmarked) [CBK304318],110.058
16,CCS(=O)(=O)N1CC2CCCC(O)(c3ccc(F)cc3)C2C1 (centres unmarked) [CBK284363],124.293
17,CCCc1[nH]nc(O)c1-c1cccc2ccccc12 [CBK075125],103.615
18,CC(C)(C)N1C(=O)c2ccc(C(=O)Nc3ccccc3C(=O)O)cc2C1=O [CBK287004],106.237
19,CC(C)[C@H](CO)Nc1nc(-c2ccc(CCC(=O)O)cc2)cn2ccnc12 [CBK037522],204.299
20,Cc1ccnc(NS(=O)(=O)c2ccc(NS(C)(=O)=O)cc2)n1 [CBK261552],116.257
21,N#Cc1ccc(CNC(=O)c2ccc3nc[nH]c3c2)cc1 [CBK153332],78.2232
22,Cc1nc(CC(=O)NC(Cc2ccsc2)c2cccnc2)cs1 (centres unmarked) [CBK285389],92.2027
23,O=C(O)CSc1ccc(Br)c2cccc(C(=O)O)c12 [CBK126919],201.499
24,N=C(N)NCCc1ccc(Cl)cc1 [CBK024074G],61.8853
25,CS(=O)(=O)c1ccc(-n2nnnc2CN2CCC3(CCCC3)C2)cc1 [CBK306178],174.713
26,Cc1cc(C)n(CC(=O)N2CCC(c3cc4cccnc4[nH]3)CC2)n1 [CBK284999],92.6053
27,O=C1Nc2ccccc2C12NN=C(c1ccccc1)S2 (centres unmarked) [CBK017221],85.4693

row,Structure (SMILES),% of control remaining [%]
1,CCOc1ccc(Cc2nnc(S)n2C2CC2)cc1OCC [CBK288388],145.637
2,O=C(CN1CCCC1)Nc1sc2c(c1C(=O)NCc1ccccc1)CCCC2 [CBK268926],110.165
3,COCC(=O)N1CCc2sccc2C1c1ccc(NC(=O)c2ccccc2F)cc1 (centres unmarked) [CBK286469],134.871
4,Nc1ncc(-c2ccncc2)nc1NC1CCCCC1 [CBK063604],189.982
5,COc1ccc(NC(=O)CC2SC(NC3CCCCC3)=NC2=O)c(OC)c1 (centres unmarked) [CBK059502],124.718
6,O=C(Cc1c[nH]c2ccccc12)Nc1cnc(-c2cccc(OC(F)(F)F)c2)c(-c2cccnc2)n1 [CBK036863],204.129
7,Oc1cccc(-c2cc(CC3(NCc4cnc5ccccc5c4)COC3)no2)c1 [CBK289662],80.4313
8,CCC(=O)N1C[C@@H](N(C)C)[C@H](c2cn(C)c3ccccc23)C1 [CBK285008],154.028
9,COc1cc(-c2cncc(NCc3cccc(Cl)c3)n2)cc(OC)c1OC [CBK065284],90.7841
10,Cc1ccc(-c2csc(NC(=O)c3cccnc3)n2)cc1 [CBK072677],66.0716
11,CCN(C(=O)Cn1c(=O)cc(C)c2ccccc21)C1CCN(C)CC1 [CBK281871],119.989
12,CC(=O)N1CCN(C(=O)c2nn(-c3ccc(F)cc3)c3c2CCCCC3)CC1 [CBK295293],108.912
13,CS(=O)(=O)N1CCc2cc(-c3cc4ccccn4c3)ccc21 [CBK285256],93.5128
14,COc1ccc(/C=N/NS(=O)(=O)c2ccc(C)cc2)cc1CSc1ccccn1 [CBK263036],85.9441
15,Cc1ccc(S(=O)(=O)N2CCN(C(c3ccccc3)c3ccccc3)CC2)cc1[N+](=O)[O-] [CBK293949],118.473
16,Cc1ccc(-c2nnc(CNC(=O)C(c3ccccc3)c3ccccc3)o2)s1 [CBK286299],100.703
17,COc1ccc([C@@H]2CCN(C(=O)Cc3ccc(F)cc3)C[C@H]2O)cc1 [CBK283709],118.907
18,Cn1nc(NC(=O)c2cnccn2)c2c(N3CCOCC3)cccc21 [CBK306716],119.852
19,CC(C)C(C(=O)O)N1C(=O)C2C3C=CC(C3)C2C1=O (centres unmarked) [CBK286535],98.3586
20,S=c1[nH]cc(-c2ccc(Br)cc2)o1 [CBK288498],115.473
21,CSCCN1CCN(c2nccnc2OCCN2C(=O)CCC2=O)CC1 [CBK084301],106.302
22,CCCOC(=O)N(O)c1ccc(Cl)c(Cl)c1 [CBK288400],69.2194
23,CCn1c2cc(C)sc2c2cnn(CC(=O)NC(C)C)c(=O)c21 [CBK284172],120.924
24,NC(=O)CCNC(=O)N1CCc2ccccc2C1 [CBK155288],149.842
25,COc1ccccc1CC(=O)N1CCC(Cc2cccc(-c3cccs3)c2)(C(N)=O)CC1 [CBK285743],119.789
26,COc1ccccc1-c1cc(N2CCN(CC(=O)N(C)c3ccccc3)CC2)ncn1 [CBK091136],222.801

# Some of the entries so far, bar-delimited.
row | Structure (SMILES) | % of control remaining [%]
8 | CCC(=O)N1C[C@@H](N(C)C)[C@H](c2cn(C)c3ccccc23)C1 [CBK285008] | 154.028
9 | COc1cc(-c2cncc(NCc3cccc(Cl)c3)n2)cc(OC)c1OC [CBK065284] | 90.7841
11 | CCN(C(=O)Cn1c(=O)cc(C)c2ccccc21)C1CCN(C)CC1 [CBK281871] | 119.989

# From publication PMC12040169 (PLOS Biology, 2025)
